# Out of some 320,000 compounds screened, about 620 (0.19%) were called active. The inconclusive results got no clear call from the source; some entries with a clear call stand among them for comparison. Calls follow the shape of the dose curve; as a rule, active = well fitted activation curve with a large enough effect; inconclusive = small, poorly fitted or top-dose-only effect; inactive = no such curve, though single readings can be large or run the other way. Where the call is inconclusive, the potency comes from a doubtful curve fit.
# Assay: qHTS Assay for Identifying a Potential Treatment of Ataxia-Telangiectasia; also: nearly all actives have a fitted effect of over 45% in size; as to activation: % of control where 0% means no effect
# Settings: […] A-T fibroblasts, KAP-1 phosphorylation AlphaLISA, neocarzinostatin DNA damage 30 min before lysis; series mostly up to 57.5 µM; activation: at the top concentration
# Outline: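 ATM-like activity read as KAP-1 phosphorylation via AlphaLISA donor/acceptor antibody pairs after lysis and 6 hr at 25C. Cells were ATM-null patient fibroblasts ([…], hTERT), dosed 60 min, then exposed to the DSB inducer NCS for 30 min.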
# Potency is read from the fitted curve at half-maximal effect.
SMILES,Potency,activation
Cc1cc(-c2cc(-c3ccccc3)on2)nc(NCC2CC2)n1,"inconclusive: 28.2 µM [activator, single point]",
CC1(C)N=C(N)N=C(N)N1c1cccc(CN)c1,active: 28.2 µM,
CCCCC(=O)Nc1ccccc1Oc1ccccc1,"inconclusive: 2.82 µM [activator, full curve, poor fit]",
CC(=O)n1cc(N(C(=O)CCl)c2ccc(Cl)cc2)c2ccccc21,"inconclusive: 39.8 µM [activator, single point]",
CCC(C)N1C(=S)SC(C)(C)C1N(O)C(=O)NC1CCCCC1 (centres undefined),active: 3.98 µM,
CC1(C)CC(=O)C(C(=O)/C=C/c2ccco2)C(=O)C1,"inconclusive: 25.1 µM [activator, partial curve]",
Cc1ccc(NC(=O)COc2ccc(Cl)cc2Cl)cc1S(=O)(=O)N1CCOCC1,,inactive: 16.6%
CCNC(=O)c1cc2ccccc2o1,,inactive: -7.38%
CC(C)(CN1CCCC1)NS(=O)(=O)c1ccccc1,"inconclusive: 3.16 µM [activator, partial curve]",
CC(C)Oc1nc(-c2ccc(Cl)cc2)nc2ccccc12,"inconclusive: 39.8 µM [activator, single point]",
COc1ccc2oc(=O)c(-c3nnc(N)s3)cc2c1,"inconclusive: 3.16 µM [activator, partial curve]",
Cc1ccc(S(=O)(=O)N2CCOCC2)cc1NC(=O)c1cc2c(s1)CCC2,,inactive: -1.55%
O=C(NCCc1csc(-c2cccnc2)n1)c1c(F)cccc1F,active: 39.8 µM,
COc1ccc(/C=N/N(Cc2ccccc2)c2ccccc2)cc1O,"inconclusive: 14.1 µM [activator, partial curve]",
CC(=O)C1=C(O)C(=O)N(c2ccc(Br)cc2)C1c1ccc(Br)cc1 (centres undefined),"inconclusive: 4.47 µM [activator, single point]",
Cc1ccc2c(c1)C(c1ccccc1)N(C(=O)CC(C)C)CC(=O)N2 (centres undefined),active: 3.55 µM,
CN(C)/C=C1\C(=O)ON=C1c1ccccc1,,inactive: 2.29%
CCN(CC)C(=O)N1c2ccccc2Sc2ccccc21,"inconclusive: 39.8 µM [activator, single point]",
Oc1ccc(NCc2ccc(OCc3ccccc3)cc2)cc1,active: 39.8 µM,
O=C(NCC1CCCO1)C(c1cccs1)N(C(=O)Cn1nnc(-c2cccs2)n1)C1CCCC1 (centres undefined),"inconclusive: 31.6 µM [activator, single point]",
CC(C)Cc1nc(SCC(=O)Nc2nnc(CC(C)C)s2)n[nH]1,"inconclusive: 2.82 µM [activator, partial curve, poor fit]",
O=C(NCC1CCCO1)c1cccc(NC(=O)c2ccccc2)c1 (centres undefined),"inconclusive: 8.91 µM [activator, partial curve]",
CSc1nc(SCC(=O)O)c2c3c(sc2n1)COC(C)(C)C3,"inconclusive: 8.91 µM [activator, partial curve, poor fit]",

# Single records, from the list above:
# CC(C)Cc1nc(SCC(=O)Nc2nnc(CC(C)C)s2)n[nH]1 is listed with Potency: inconclusive: 2.82 µM [activator, partial curve, poor fit]
# Cc1ccc2c(c1)C(c1ccccc1)N(C(=O)CC(C)C)CC(=O)N2 (centres undefined) is listed with Potency: active: 3.55 µM
# O=C(NCCc1csc(-c2cccnc2)n1)c1c(F)cccc1F is listed with Potency: active: 39.8 µM

# Next part.

SMILES,Potency,activation
Nc1nn(-c2ccccc2)c(N)c1N=Nc1ccc2c(c1)OCO2,"inconclusive: 7.08 µM [activator, single point]",
Cn1cc(CN2CCC(C(O)c3cccs3)CC2)c(-c2ccccc2F)n1 (centres undefined),"inconclusive: 39.8 µM [activator, partial curve, poor fit]",
COc1cccc(Cn2c(N)c(C#N)c3nc4ccccc4nc32)c1OC,"inconclusive: 0.794 µM [activator, full curve, poor fit]",
COc1cc(OC)c(C(=O)OCC(=O)Nc2c(C)n(C)n(-c3ccccc3)c2=O)cc1OC,"inconclusive: 8.91 µM [activator, partial curve]",
C=C(CC)C(=O)c1ccc(OCC(=O)O)c(Cl)c1Cl,"inconclusive: 39.8 µM [activator, single point]",
Cc1ccc(S(=O)(=O)N2CCOCC2)cc1C(=O)NCC1CCCO1 (centres undefined),"inconclusive: 12.6 µM [activator, partial curve, poor fit]",
COc1ccc(/C=C(/NC(=O)c2ccco2)C(=O)N2CCc3ccccc32)cc1OC,"inconclusive: 0.631 µM [activator, full curve, poor fit]",
Cc1ccc(CN2CCN(C(=O)CC(C)C)CC2)cc1,"inconclusive: 0.708 µM [activator, full curve]",
CCOC(=O)c1c(NC(=O)/C=C/C(=O)O)sc(C)c1-c1ccc(C(C)(C)C)cc1,"inconclusive: 39.8 µM [activator, single point]",
Cc1ccc(C(C)C)c(OCCCN2CCc3ccccc3C2)c1,"inconclusive: 28.2 µM [activator, single point]",
CCCc1cc(NCCN(C)C)n2c(nc3ccccc32)c1C#N,,inactive: -1.78%
CCOC(=O)c1cc2cc3ccccc3cc2[nH]1,"inconclusive: 39.8 µM [activator, single point]",
CC(C)CN(C(=O)c1ccco1)c1nc2ccccc2s1,"inconclusive: 11.2 µM [activator, partial curve]",
O=C(N/N=C/c1ccncc1)c1ccc(COc2cccc3cccnc23)cc1,"inconclusive: 4.47 µM [activator, partial curve]",
CCN(CC)c1ccc2cc(-c3nc4ccccc4n3C)c(=O)oc2c1,"inconclusive: 17.8 µM [activator, partial curve]",
c1ccc(-c2cncnc2)cc1,"inconclusive: 25.1 µM [activator, single point]",
O=C(CSc1nc2c(c(=O)n1-c1ccccc1)SCC2)NCC1CCCO1 (centres undefined),,inactive: -9.2%
CN(C(=O)c1ccc(NC(=O)Cc2cccc(NC(=O)C3CCCN(C(=O)C4CCC4)C3)c2)cc1)C1CCCC1 (centres undefined),"inconclusive: 20 µM [activator, partial curve]",
O=C(C1CCCN1S(=O)(=O)c1cccc2nsnc12)N1CCN(c2ccc(F)cc2)CC1 (centres undefined),,inactive: -3.4%
O=C(NCc1ccc(Cl)cc1)c1ccccc1Oc1ccccc1,"inconclusive: 1.41 µM [activator, full curve, poor fit]",
c1ccc(CSc2nnc(-c3ccco3)n2Cc2ccco2)cc1,"inconclusive: 1 µM [activator, partial curve]",
O=C(c1ccncc1)N1CCN(S(=O)(=O)c2ccc3ccccc3c2)CC1,"inconclusive: 3.55 µM [activator, partial curve]",
CCc1cc(-c2nc(N)ncc2-c2ccc(Br)cc2)c(O)cc1OC,"inconclusive: 39.8 µM [activator, single point]",

SMILES,Potency,activation
Cc1ccc(-c2cc(C(=O)NCC3CCCO3)no2)cc1 (centres undefined),"inconclusive: 7.08 µM [activator, single point]",
COc1c(CC=C(C)C)cc(C2CC(=O)c3c(O)cc(O)cc3O2)cc1CC=C(C)C (centres undefined),"inconclusive: 39.8 µM [activator, single point]",
CC(=O)c1ccc(C(=O)Nc2ccc(N3CCOCC3)cc2)cc1,"inconclusive: 44.7 µM [activator, partial curve, poor fit]",
Cn1nccc1C(=O)NC1CCCc2c1cnn2-c1cc(F)cc(F)c1 (centres undefined),"inconclusive: 7.08 µM [activator, partial curve]",
O=C(Nc1cccc(Cl)c1N1CCCC1)c1cc2ccccc2o1,"inconclusive: 39.8 µM [activator, single point]",
CN(C)C(CNC(=O)C1CCN(S(=O)(=O)c2ccccc2)CC1)c1ccccc1 (centres undefined),"inconclusive: 3.55 µM [activator, partial curve]",
CCOC(=O)COc1ccc(S(=O)(=O)N2CCN(c3ccccc3)CC2)cc1,active: 25.1 µM,
Cc1ccnc(NC(=O)c2ccccc2NC(=O)c2ccccc2)c1,"inconclusive: 0.708 µM [activator, full curve, poor fit]",
CCCNC(=O)c1ccc2c(=O)c(O)c(-c3cccc(Br)c3)[nH]c2c1,"inconclusive: 39.8 µM [activator, partial curve, poor fit]",
O=C(c1ccc(COc2ccccc2Br)cc1)N1CCCCCC1,"inconclusive: 28.2 µM [activator, partial curve]",
N#C/C(=C\c1ccc(Cl)cc1Cl)c1n[nH]c(Cn2cncn2)n1,,inactive: 1.55%
COCCCNC(=O)/C(C#N)=C/c1c(N2CCN(C)CC2)nc2ccccn2c1=O,"inconclusive: 39.8 µM [activator, single point]",
CCCCCCCCOC(=O)c1nc(Cl)c(Cl)c(N)c1Cl,active: 31.6 µM,
O=C(CSc1nc2ccccc2c(=O)n1-c1ccccc1)N/N=C/C=C/c1ccccc1[N+](=O)[O-],,inactive: -5.84%
O=C(COC(=O)CNC(=O)c1ccc([N+](=O)[O-])o1)Nc1ncc(Cl)cc1Cl,active: 35.5 µM,
CCN(CC)CCN1C(=O)/C(=C\c2ccc(Cl)c([N+](=O)[O-])c2)SC1=Nc1ccc(OC)cc1,,inactive: -5.84%
CC(=O)Nc1ccc(S(=O)(=O)c2cc(O)ccc2O)cc1,,inactive: -9.77%
CC(C)OP(=O)(OC(C)C)C(O)c1ccc(N(C)C)cc1 (centres undefined),active: 5.01 µM,
CC(C)Cn1c(O)c(/C=C2\C=NN=C2c2ccccc2)sc1=S,active: 31.6 µM,
COC(=O)[C@H](Cc1ccccc1)NC(=O)NCc1ccccc1,"inconclusive: 14.1 µM [activator, partial curve]",
O=C(Nc1nccs1)c1cc2cc(Cl)ccc2oc1=O,"inconclusive: 22.4 µM [activator, partial curve, poor fit]",
CN(CCc1ccccn1)Cc1ccc(Cl)c(Cl)c1,"inconclusive: 8.91 µM [activator, single point]",
CCc1nc(SCC(=O)NCCc2ccccc2)c2c(=O)n(C)c(=O)n(C)c2n1,"inconclusive: 3.55 µM [activator, partial curve]",

# Reference: PubChem BioAssay AID485349 (National Center for Advancing Translational Sciences (NCATS), 2010)
